Measured data: PubChem BioAssay AID743121 (NCATS, 2013)
The deposit covers about 26,000 reagents; this is an unselected part. Over the whole deposit, 167 (0.63%) got an active call. 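Calls are per gene from RSA p-values that are not deposited; an individual active-marked siRNA can sensitise only weakly.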 A number with no mark means an inactive call. Reagents against one gene are numbered here. Not all columns of the deposit are shown. Reagent sequences are not shown.

Test: 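Knock-downs that sensitise breast cancer cells to camptothecin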 (primary screen)
System: MDA-MB-231 cells, a human breast cancer line
Reagents: single siRNA against human genes, 20 nM siRNA (0.8 pmol per well)
Timing: 120 h (drug added 48 h after transfection, read 72 h later)
Conditions: camptothecin 20 nM (about EC30) for 72 h; vehicle 0.1% DMSO in parallel plates
Detection: 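Cell viability by ATP luminescence (CellTiter-Glo) as % of non-targeting siRNA wells, and the log2 ratio of viability without drug over viability with camptothecin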
Scale: log2 vehicle/camptothecin viability: higher = stronger sensitisation to camptothecin; viability with camptothecin: higher = more viable cells
Units: viability with camptothecin in % of control
Call rule: 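Each gene scored by redundant siRNA activity (RSA) over its individual siRNA ratios; a gene is called active at p < 0.001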

IL12RB1 #1: log2 vehicle/camptothecin viability = -0.439; viability with camptothecin = 69.6
IL12RB1 #2: log2 vehicle/camptothecin viability = -0.0257; viability with camptothecin = 98.8
IL12RB1 #3: log2 vehicle/camptothecin viability = -0.139; viability with camptothecin = 75.9
IL12RB1 #4: log2 vehicle/camptothecin viability = -0.268; viability with camptothecin = 112
CTSF #1: log2 vehicle/camptothecin viability = -0.159; viability with camptothecin = 117
CTSF #2: log2 vehicle/camptothecin viability = -0.223; viability with camptothecin = 58.6
CTSF #3: log2 vehicle/camptothecin viability = -0.33; viability with camptothecin = 66.7
CTSF #4: log2 vehicle/camptothecin viability = 0.123; viability with camptothecin = 58.5
MYL3 #1: log2 vehicle/camptothecin viability = 0.289; viability with camptothecin = 30.6
MYL3 #2: log2 vehicle/camptothecin viability = -0.361; viability with camptothecin = 97.2
MYL3 #3: log2 vehicle/camptothecin viability = -0.32; viability with camptothecin = 59.7
MYL3 #4: log2 vehicle/camptothecin viability = -0.0809; viability with camptothecin = 82.9
FANCC #1: log2 vehicle/camptothecin viability = -0.0126; viability with camptothecin = 28.8
FANCC #2: log2 vehicle/camptothecin viability = -0.215; viability with camptothecin = 54.7
FANCC #3: log2 vehicle/camptothecin viability = -0.222; viability with camptothecin = 79.1
FANCC #4: log2 vehicle/camptothecin viability = -0.263; viability with camptothecin = 96.2
GNG13 #1: log2 vehicle/camptothecin viability = -0.219; viability with camptothecin = 108
GNG13 #2: log2 vehicle/camptothecin viability = 0.296; viability with camptothecin = 52.1
GNG13 #3: log2 vehicle/camptothecin viability = -0.0323; viability with camptothecin = 97.5
GNG13 #4: log2 vehicle/camptothecin viability = -0.00794; viability with camptothecin = 107
PPP1R2 #1: log2 vehicle/camptothecin viability = -0.219; viability with camptothecin = 69.1
PPP1R2 #2: log2 vehicle/camptothecin viability = -0.0711; viability with camptothecin = 87.8
PPP1R2 #3: log2 vehicle/camptothecin viability = -0.37; viability with camptothecin = 86.3
PPP1R2 #4: log2 vehicle/camptothecin viability = -0.314; viability with camptothecin = 109
LECT2 #1: log2 vehicle/camptothecin viability = -0.0721; viability with camptothecin = 101
LECT2 #2: log2 vehicle/camptothecin viability = -0.404; viability with camptothecin = 87.6
LECT2 #3: log2 vehicle/camptothecin viability = -0.309; viability with camptothecin = 64.8
LECT2 #4: log2 vehicle/camptothecin viability = 0.315; viability with camptothecin = 80.8
MKI67 #1: log2 vehicle/camptothecin viability = 0.0288; viability with camptothecin = 88.5
MKI67 #2: log2 vehicle/camptothecin viability = 0.223; viability with camptothecin = 42.8
MKI67 #3: log2 vehicle/camptothecin viability = -0.318; viability with camptothecin = 88.3
MKI67 #4: log2 vehicle/camptothecin viability = -0.316; viability with camptothecin = 86.9
HPR #1: log2 vehicle/camptothecin viability = -0.362; viability with camptothecin = 88.1
HPR #2: log2 vehicle/camptothecin viability = 0.0354; viability with camptothecin = 105
HPR #3: log2 vehicle/camptothecin viability = 0.0821; viability with camptothecin = 83.4
HPR #4: log2 vehicle/camptothecin viability = -0.597; viability with camptothecin = 42.2

A few values from the entries so far:
For “log2 vehicle/camptothecin viability”, HPR #1 shows -0.362
For “log2 vehicle/camptothecin viability”, MKI67 #4 shows -0.316
